The experiment concerns the target Trypanothione reductase (Trypanosoma cruzi, UniProt P28593). Kind of experiment: Compound was evaluated for the competitive inhibition of trypanothione reduction by recombinant Trypanothione reductase from Trypanosoma cruzi.

Protein sequences, listed by entry. Tags and fused reporters are not part of them. Lines headed by an entry give the natural chain unless they say otherwise; changes in a name come on top.
UniProt P28593: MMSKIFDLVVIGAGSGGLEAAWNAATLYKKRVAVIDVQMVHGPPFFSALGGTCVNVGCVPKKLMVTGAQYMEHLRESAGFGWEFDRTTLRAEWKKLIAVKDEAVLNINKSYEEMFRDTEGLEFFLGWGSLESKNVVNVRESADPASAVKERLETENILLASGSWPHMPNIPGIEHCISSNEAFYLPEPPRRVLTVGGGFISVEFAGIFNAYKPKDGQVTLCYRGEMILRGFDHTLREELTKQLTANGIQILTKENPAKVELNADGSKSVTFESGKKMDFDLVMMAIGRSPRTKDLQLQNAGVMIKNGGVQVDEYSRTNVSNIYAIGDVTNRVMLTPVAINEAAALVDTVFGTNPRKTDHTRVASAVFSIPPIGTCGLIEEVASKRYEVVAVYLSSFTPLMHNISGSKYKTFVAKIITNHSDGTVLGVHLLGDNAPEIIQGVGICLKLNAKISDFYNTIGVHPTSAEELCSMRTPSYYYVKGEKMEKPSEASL

The values below come from ChEMBL document CHEMBL1159187, “Novel polyamine derivatives as potent competitive inhibitors of Trypanosoma cruzi trypanothione reductase” (Bioorg Med Chem Lett, 1995).

SMILES strings stand for the structures.

One may read the Ki as the dissociation constant of the complex between target and ligand, obtained from inhibition or displacement.

For the molecule `CN(C)CCCN1c2ccccc2CCc2ccc(Cl)cc21` [CLOMIPRAMINE], the Ki stood at 6.5 µM.
